{"source": "PubChem BioAssay AID652243 (Drosophila RNAi Screening Center, 2013)", "purpose": "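Knock-downs that decrease or increase androgen receptor reporter signal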 (primary screen)", "cells": "Drosophila S2R+ cells", "reagents": "long dsRNA against Drosophila genes", "timing": "72 h (48 h, then 24 h hormone)", "challenge": "synthetic androgen R1881 at 10 nM for 24 h", "measurement": "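Per-well raw luminescence of the androgen-driven firefly reporter and of the Renilla control, two replicates each, without normalisation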", "direction": "firefly reporter light: higher = more light from androgen-responsive reporter; Renilla control light: higher = more constitutive control signal (cell number, transfection)", "call rule": "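Across duplicate plates, a knock-down whose log firefly/Renilla ratio shifted a set fold down or up from the GFP/LacZ control mean was a hit; the downward cut appears as both 1.5 and 3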", "meaning of the calls": "active = hit: reporter lowered or raised; inactive = no hit", "note": "In all, the deposit lists about 24,000 reagents; this is a random part of those with a known target gene and a result. In the full data, 246 (1%) were called active. 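Plates not normalised; calls are printed but the firefly/Renilla ratio behind them is not deposited; fold cut for lowering reported inconsistently.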 The raw values are shown without normalisation. Entries without a mark were called inactive. The numbers tell different reagents against one gene apart. Names joined by + are all predicted targets of the reagent. Reagent sequences are not shown. Not stated in the record: the amount of reagent."}
{"Gene": "Mal-B1", "reagent": 1, "firefly reporter light, replicate 1": 4.05e5, "firefly reporter light, replicate 2": 2.73e5, "Renilla control light, replicate 1": 1.38e6, "Renilla control light, replicate 2": 1.87e6}
{"Gene": "Mal-B1", "reagent": 2, "firefly reporter light, replicate 1": 6.65e5, "firefly reporter light, replicate 2": 5.28e5, "Renilla control light, replicate 1": 1.01e6, "Renilla control light, replicate 2": 7.89e5}
{"Gene": "CG31787", "reagent": 1, "firefly reporter light, replicate 1": 1.32e5, "firefly reporter light, replicate 2": 2.12e5, "Renilla control light, replicate 1": 5.12e5, "Renilla control light, replicate 2": 7.30e5}
{"Gene": "CG5810", "reagent": 1, "firefly reporter light, replicate 1": 2.83e5, "firefly reporter light, replicate 2": 2.34e5, "Renilla control light, replicate 1": 3.29e6, "Renilla control light, replicate 2": 2.99e6}
{"Gene": "CG5810", "reagent": 2, "firefly reporter light, replicate 1": 7.40e5, "firefly reporter light, replicate 2": 5.55e5, "Renilla control light, replicate 1": 1.61e6, "Renilla control light, replicate 2": 1.41e6}
{"Gene": "Roc1b + Cdc5", "reagent": 1, "firefly reporter light, replicate 1": 74049, "firefly reporter light, replicate 2": 77998, "Renilla control light, replicate 1": 1.59e6, "Renilla control light, replicate 2": 1.37e6}
{"Gene": "Roc1b + Cdc5", "reagent": 2, "firefly reporter light, replicate 1": 5.24e5, "firefly reporter light, replicate 2": 3.79e5, "Renilla control light, replicate 1": 1.01e6, "Renilla control light, replicate 2": 6.25e5}
{"Gene": "emp", "reagent": 1, "firefly reporter light, replicate 1": 1.10e5, "firefly reporter light, replicate 2": 1.29e5, "Renilla control light, replicate 1": 1.40e5, "Renilla control light, replicate 2": 1.65e5}
{"Gene": "emp", "reagent": 2, "firefly reporter light, replicate 1": 1.16e6, "firefly reporter light, replicate 2": 1.07e6, "Renilla control light, replicate 1": 2.10e6, "Renilla control light, replicate 2": 2.36e6}
{"Gene": "SK", "reagent": 1, "firefly reporter light, replicate 1": 7.31e5, "firefly reporter light, replicate 2": 6.15e5, "Renilla control light, replicate 1": 7.57e5, "Renilla control light, replicate 2": 5.82e5}
{"Gene": "SK", "reagent": 2, "firefly reporter light, replicate 1": 2.32e5, "firefly reporter light, replicate 2": 3.63e5, "Renilla control light, replicate 1": 2.93e6, "Renilla control light, replicate 2": 3.43e6}
{"Gene": "SK", "reagent": 3, "firefly reporter light, replicate 1": 63391, "firefly reporter light, replicate 2": 1.26e5, "Renilla control light, replicate 1": 1.97e6, "Renilla control light, replicate 2": 1.37e6}
{"Gene": "SK", "reagent": 4, "firefly reporter light, replicate 1": 1.03e5, "firefly reporter light, replicate 2": 1.06e5, "Renilla control light, replicate 1": 8.23e5, "Renilla control light, replicate 2": 5.33e5}
{"Gene": "SK", "reagent": 5, "firefly reporter light, replicate 1": 2.28e5, "firefly reporter light, replicate 2": 1.91e5, "Renilla control light, replicate 1": 5.15e5, "Renilla control light, replicate 2": 8.65e5}

Part of the list above, set out differently.
{"Gene":"CG31787","reagent":1,"firefly reporter light, replicate 1":1.32e5,"firefly reporter light, replicate 2":2.12e5,"Renilla control light, replicate 1":5.12e5,"Renilla control light, replicate 2":7.30e5}
{"Gene":"CG5810","reagent":1,"firefly reporter light, replicate 1":2.83e5,"firefly reporter light, replicate 2":2.34e5,"Renilla control light, replicate 1":3.29e6,"Renilla control light, replicate 2":2.99e6}
